From PubChem BioAssay AID493014 (National Center for Advancing Translational Sciences (NCATS), 2011)
The other results are listed elsewhere or left out. The main result of the screen is listed elsewhere. These columns were measured beside it and carry no call. Most of these compounds were active or inconclusive in the main read-out, so they are no random draw. Potencies come from curve fits of mixed quality, noted in brackets.

Test: qHTS Assay to Find Inhibitors of Chronic Active B-Cell Receptor Signaling
Conditions: ABC-DLBCL IkBa-CBG/CBR reporter, luminescence ratio (green luciferase fused to IkBa over red control in TMD8 lymphoma cells), 4 h
Procedure, shortened: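 Cell line TMD8 (human ABC DLBCL), stably expressing tet-inducible CBG68-IkBa fusion and CBR; IMDM/0.5% FBS; cpd up to 46 uM; dox induction, 4 h, 37C/5% CO2; dual luminescence; green/red ratio; MG132 control.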

[1] = measured here: CBR red luminescence, cell number
[2] = measured here: IkBa-CBG green luminescence

## CC(OC(=O)C(C)Oc1ccccc1)C(=O)Nc1ccc(S(=O)(=O)N2CCCCC2)cc1 (stereo unspecified)
[1]
  AC50: 29.1 µM [rising, single point]
[2]
  AC50: 16.4 µM [falling, partial curve, poor fit]

## COCc1cc(=O)[nH]c(Nc2nc(C)c3cc(OC)ccc3n2)n1
[1]
  AC50: 8.2 µM [falling, partial curve, poor fit]

## N#Cc1nc(COc2ccccc2)oc1N1CCCCCC1
[1]
  AC50: 11.6 µM [rising, partial curve, poor fit]

## c1ccc(-c2nc(-c3nccc4ccccc34)oc2-c2ccccc2)cc1
[1]
  AC50: 35.5 µM [falling, single point]

## O=C(CN(c1ccc(Cl)cc1)S(=O)(=O)c1ccccc1)N1CCN(c2ccccc2)CC1
[1]
  AC50: 6.51 µM [rising, single point]

## COc1ccccc1NC(=O)N1c2ccc(F)cc2CCC1C (stereo unspecified)
[1]
  AC50: 29.1 µM [falling, single point]

## CC(=O)Cn1nnc2sc(-c3ccccc3)cc2c1=O
[1]
  AC50: 35.5 µM [falling, single point]

## CCN(CC)CC(=O)Nc1ccc2c(c1)Nc1ccccc1CC2
[1]
  AC50: 14.1 µM [falling, single point]

## O=C(O)c1ccc(N=NN2CCCCCC2)cc1
[1]
  AC50: 6.51 µM [falling, partial curve, poor fit]

## Cc1cc(NC(=O)CSc2cn(CCNC(=O)c3ccc(Cl)cc3)c3ccccc23)no1
[1]
  AC50: 10.3 µM [falling, partial curve, poor fit]

## Cc1ccccc1C(=O)N/N=C/c1ccc([N+](=O)[O-])s1
[1]
  AC50: 11.6 µM [falling, partial curve, poor fit]

## CN(CC(=O)Nc1ccc(F)c(F)c1F)C(=O)C1CCC1
[1]
  AC50: 0.206 µM [rising, full curve, poor fit]

## O=C(c1ccco1)c1cn(CC(=O)N2CCCc3ccccc32)c2ccccc12
[1]
  AC50: 29.1 µM [falling, single point]

## COc1cc(OC)c2c(c1)OC(=O)CC2c1ccc(C)cc1 (stereo unspecified)
[1]
  AC50: 16.4 µM [rising, partial curve]

## CCOC(=O)C1=C(C)OC(N)=C(C#N)C1c1c(C)nn(-c2ccc(C)cc2)c1Cl (stereo unspecified)
[1]
  AC50: 32.6 µM [rising, single point]

## Cc1cc(C(=O)NCCc2ccc(Cl)cc2)no1
[1]
  AC50: 0.891 µM [rising, full curve, poor fit]

## Cc1cc(C)nc(NC(N)=NC(C)c2ccccc2)n1 (stereo unspecified)
[1]
  AC50: 35.5 µM [falling, single point]

## COc1ccc(C2=NOC3(CC(=O)N(c4ccc(F)cc4)C3=O)C2)c(OC)c1 (stereo unspecified)
[1]
  AC50: 23.1 µM [falling, partial curve, poor fit]

## O=C1CCC(=O)N1c1nc2nc(-c3ccccc3)cc(=O)n2[nH]1
[1]
  AC50: 4.61 µM [rising, partial curve, poor fit]

## CCN1CCS/C1=C\C=C\C1=[N+](CC)CCS1
[2]
  AC50: 22.4 µM [falling, single point]

## O=C(COC(=O)CNC(=O)c1ccccc1)Nc1nnc(-c2ccccc2)o1
[1]
  AC50: 16.4 µM [falling, partial curve, poor fit]

## Cc1ccccc1CSc1nc2nc(C)c(Cc3ccccc3)c(C)n2n1
[1]
  AC50: 35.5 µM [rising, single point]

## CCN1C(=O)[C@H]2[C@@H](c3ccc(-c4cccc(Cl)c4)cc3)N[C@@](Cc3ccccc3)(C(=O)OC)[C@H]2C1=O
[1]
  AC50: 13 µM [falling, partial curve, poor fit]

## COc1cccc(NC(=O)c2oc3ccccc3c2NC(=O)C(C)(C)C)c1
[1]
  AC50: 8.2 µM [falling, partial curve]

## COc1ccc(C(=O)NNc2cc(C)nc(NNC(=O)c3ccc(OC)cc3)n2)cc1
[1]
  AC50: 35.5 µM [falling, partial curve, poor fit]

## O=C(Nc1cccc(Cl)c1)Nc1ccnc(-c2cccnc2)n1
[1]
  AC50: 6.31 µM [falling, single point]

## COc1ccc(S(=O)(=O)N2CCN(C3CC4CCC3C4)CC2)cc1 (stereo unspecified)
[1]
  AC50: 35.5 µM [falling, single point]

## Nc1nc(SCc2ccc([N+](=O)[O-])cc2)c2ncn(C3OC(CO)C(O)C3O)c2n1 (stereo unspecified)
[1]
  AC50: 6.31 µM [rising, partial curve, poor fit]

## Cc1ccn2cc(CSc3ccccc3)nc2c1
[1]
  AC50: 5.8 µM [falling, partial curve, poor fit]

## Cc1noc(/C=C/c2cccnc2)c1[N+](=O)[O-]
[1]
  AC50: 25.1 µM [falling, single point]

## O=C(Nc1ccc(Br)cn1)C1CCCN1S(=O)(=O)c1ccccc1 (stereo unspecified)
[1]
  AC50: 3.16 µM [falling, partial curve]

## COc1ccc2oc(C(=O)OC(C)C(=O)Nc3ccc(N4CCOCC4)cc3)c(C)c2c1 (stereo unspecified)
[1]
  AC50: 23.1 µM [rising, single point]

## COc1ccc(CC(=O)NCc2ccc(-n3cccc3)cc2)cc1OC
[1]
  AC50: 14.1 µM [rising, single point]
[2]
  AC50: 7.94 µM [falling, partial curve, poor fit]

## CC(C)C(=O)Nc1ccc(N2CCCC2)cc1
[1]
  AC50: 18.4 µM [rising, single point]

## Cc1ccccc1OCCSc1nnc(-c2ccncc2)n1C
[1]
  AC50: 16.4 µM [rising, single point]

## O=C(Nc1cc(Cl)cc(Cl)c1)c1cccc(OC(F)F)c1
[1]
  AC50: 20.6 µM [falling, single point]
[2]
  AC50: 32.6 µM [rising, partial curve, poor fit]

## O=C(N/N=C/c1cn(-c2ccccc2)nc1-c1ccc(F)cc1)c1ccc2c(c1)OCO2
[1]
  AC50: 3.55 µM [falling, partial curve, poor fit]

## CCN(C(=O)COC(=O)c1ccccc1SCC(=O)NC1CCCCCCC1)C1CCS(=O)(=O)C1 (stereo unspecified)
[1]
  AC50: 13 µM [falling, partial curve]

## Cc1cc(=O)[nH]c(SCC(=O)Nc2nc(-c3ccccc3)cs2)n1
[1]
  AC50: 11.2 µM [falling, partial curve, poor fit]

## O=C(O)c1ccccc1-c1ccccc1C(=O)Nc1ccc2c(c1)[nH]c(=O)c1ccccc12
[1]
  AC50: 12.6 µM [falling, single point]

## CC1(C)C(O)=C(c2nc3ccccc3[nH]2)C(=N)N1c1ccccc1
[1]
  AC50: 35.5 µM [falling, single point]

## CCOc1ccc(OCCn2c(=S)[nH]c3c(N)ncnc32)cc1
[1]
  AC50: 35.5 µM [rising, single point]

## Cc1[nH]nc2c1C(c1cc(Br)cs1)C(C#N)=C(N)O2 (stereo unspecified)
[1]
  AC50: 4.11 µM [falling, partial curve]

## O=C(OCc1ccccn1)c1ccc(COc2ccccc2Cl)o1
[1]
  AC50: 3.98 µM [falling, full curve, poor fit]

## Clc1ccc(-c2csc(N3CCCCCC3)n2)cc1
[1]
  AC50: 1.41 µM [falling, full curve, poor fit]

## Cc1cccc(N(CC(=O)Nc2ccc(F)cc2)S(C)(=O)=O)c1
[1]
  AC50: 0.184 µM [falling, full curve, poor fit]

## COCCCNC(=O)c1ccccc1NS(C)(=O)=O
[1]
  AC50: 18.4 µM [rising, single point]

## COc1ccc(/C=C2\C(=O)OCc3cc(OC)c(OC)cc32)cc1OC
[1]
  AC50: 13 µM [rising, partial curve, poor fit]
[2]
  AC50: 14.6 µM [falling, partial curve, poor fit]

## CC1(N2CCOCC2)CC2(O)C(=[N+]1[O-])CCc1c2no[n+]1[O-] (stereo unspecified)
[1]
  AC50: 0.282 µM [rising, full curve, poor fit]

## COc1cccc(NC(=O)C/C(C)=N/NC(=O)c2ccccc2Cl)c1
[1]
  AC50: 11.2 µM [falling, partial curve]

## CCC(=O)NC(Cc1ccccc1)c1ccc2c(c1)OCCCO2 (stereo unspecified)
[1]
  AC50: 10.3 µM [rising, partial curve, poor fit]

## Cc1nc(Nc2cc(F)ccc2C)c2nnn(Cc3ccccc3)c2n1
[1]
  AC50: 35.5 µM [falling, single point]

## CC(=O)Nc1ccc(S(=O)(=O)Nc2cccc(S(=O)(=O)N(C)c3ccccc3)c2)cc1
[1]
  AC50: 3.66 µM [falling, full curve, poor fit]

## CCn1c(SCC(=O)Nc2nc(C)c(C(=O)OC)s2)nnc1C(C)C
[1]
  AC50: 3.16 µM [falling, full curve, poor fit]

## Cc1[nH]n(-c2ccccc2)c(=O)c1/C=N/N1CCOCC1
[1]
  AC50: 35.5 µM [rising, single point]

## COc1ccccc1-c1cc(C(=O)NCc2ccco2)no1
[1]
  AC50: 2 µM [falling, full curve]

## COc1ccccc1N1C(=O)C2ON(c3ccccc3)C(c3ccc(N(C)C)cc3)C2C1=O (stereo unspecified)
[1]
  AC50: 7.31 µM [falling, partial curve, poor fit]

## O=C(CCN1C(=O)/C(=C/c2ccc(F)cc2)SC1=S)NC1CCS(=O)(=O)C1 (stereo unspecified)
[1]
  AC50: 10 µM [falling, partial curve, poor fit]

## COC(=O)c1cnc2ccccc2n1
[1]
  AC50: 0.00517 µM [falling, full curve, poor fit]

## Cc1ccc(/C=C/C(=O)Nc2ccc(S(=O)(=O)Nc3onc(C)c3C)cc2)cc1
[1]
  AC50: 35.5 µM [falling, single point]

## COc1ccc(C(=O)NC(=S)NNC(=O)CNC(=O)C2CCCCC2)cc1
[1]
  AC50: 0.224 µM [rising, full curve, poor fit]

## CN(CCC#N)c1ccc(/C=C(\C#N)c2ccccn2)cc1
[1]
  AC50: 2.06 µM [falling, single point]
